Test [1] deals with T1, Rad54 (S. cerevisiae, wild type) (S. cerevisiae) (UniProt P32863).
T1 sequence: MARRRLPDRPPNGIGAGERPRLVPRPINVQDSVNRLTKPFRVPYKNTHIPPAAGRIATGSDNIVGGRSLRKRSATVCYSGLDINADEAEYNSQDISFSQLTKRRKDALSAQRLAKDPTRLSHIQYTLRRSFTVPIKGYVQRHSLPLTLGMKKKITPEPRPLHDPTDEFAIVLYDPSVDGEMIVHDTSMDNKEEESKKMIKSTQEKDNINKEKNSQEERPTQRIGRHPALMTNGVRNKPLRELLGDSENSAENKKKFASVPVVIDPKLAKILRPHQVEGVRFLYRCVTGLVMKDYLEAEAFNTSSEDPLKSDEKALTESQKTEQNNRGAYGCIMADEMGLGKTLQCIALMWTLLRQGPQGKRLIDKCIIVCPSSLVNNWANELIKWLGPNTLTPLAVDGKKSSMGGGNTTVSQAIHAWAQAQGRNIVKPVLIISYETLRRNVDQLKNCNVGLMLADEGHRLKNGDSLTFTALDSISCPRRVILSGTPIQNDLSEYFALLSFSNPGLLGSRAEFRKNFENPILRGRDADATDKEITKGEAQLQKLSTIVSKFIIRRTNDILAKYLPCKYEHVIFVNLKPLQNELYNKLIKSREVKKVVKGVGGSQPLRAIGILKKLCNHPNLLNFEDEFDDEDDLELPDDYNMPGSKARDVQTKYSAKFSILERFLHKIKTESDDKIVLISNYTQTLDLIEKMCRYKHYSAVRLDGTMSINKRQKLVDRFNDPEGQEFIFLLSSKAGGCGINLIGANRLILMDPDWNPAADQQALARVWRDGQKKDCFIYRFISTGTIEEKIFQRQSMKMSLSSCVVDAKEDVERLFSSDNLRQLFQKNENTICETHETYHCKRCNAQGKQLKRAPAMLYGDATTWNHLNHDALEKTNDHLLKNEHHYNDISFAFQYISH
The test can be described thus: pull-down; 3 ug Rad51 incubated with 3 ug Rad54 or Rad54-AA in 30 ul buffer T (20 mM Tris-HCl pH 7.5, 150 mM KCl, 1 mM DTT, 0.5 mM EDTA, 0.01% NP40), 30 min at 4°C, then Ni-NTA agarose 30 min at 4°C; eluted with 5% SDS, 12% SDS-PAGE; both purified.

Chains of the proteins cited; added tags and fusions are not shown.
UniProt P15873: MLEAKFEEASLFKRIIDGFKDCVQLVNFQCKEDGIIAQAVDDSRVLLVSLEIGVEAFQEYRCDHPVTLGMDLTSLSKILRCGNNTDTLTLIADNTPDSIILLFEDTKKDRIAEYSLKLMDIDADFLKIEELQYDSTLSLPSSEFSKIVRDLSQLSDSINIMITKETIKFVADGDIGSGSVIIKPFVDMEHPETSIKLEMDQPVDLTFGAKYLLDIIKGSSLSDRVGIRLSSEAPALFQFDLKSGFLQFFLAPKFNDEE
UniProt P25454: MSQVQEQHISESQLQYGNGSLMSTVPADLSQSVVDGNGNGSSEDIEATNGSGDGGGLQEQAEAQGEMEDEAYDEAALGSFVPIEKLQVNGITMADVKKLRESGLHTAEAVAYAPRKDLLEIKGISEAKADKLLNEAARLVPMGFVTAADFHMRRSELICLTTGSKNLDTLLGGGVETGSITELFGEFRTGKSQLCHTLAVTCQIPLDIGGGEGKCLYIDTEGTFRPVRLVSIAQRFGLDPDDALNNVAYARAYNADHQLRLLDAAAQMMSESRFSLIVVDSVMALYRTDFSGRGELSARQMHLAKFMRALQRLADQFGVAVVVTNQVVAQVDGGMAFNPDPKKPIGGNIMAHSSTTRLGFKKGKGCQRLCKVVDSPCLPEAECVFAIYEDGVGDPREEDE

Test [2] deals with T2, Rad54-AA (Y494A, F495A) mutant protein (S. cerevisiae) (UniProt P32863).
T2 sequence: T1 sequence with Y494A, F495A
The test is described as above.

For test [3], the target named is proliferating cell nuclear antigen (PCNA) (UniProt P15873). The test can be described thus: pull-down; peptide competition: Rad54 mixed with PCNA immobilised on Affi-beads in the presence of the peptide pFF or pAA, or without peptide; supernatant and eluate on 12% SDS-PAGE, Coomassie; both purified.
Test [4] has the same target. Put plainly: pull-down; Rad51 competition: 4 ug Rad51 pre-incubated with 3 ug Rad54 before the Affi-PCNA beads, or 4 or 15 ug Rad51 added to the Rad54-PCNA complex pre-assembled on Affi-PCNA beads; washing and SDS elution, Coomassie; both purified.
The target is the same in test [5]. Put plainly: pull-down; PCNA immobilised on Affi-gel 15 beads (5 mg/ml, 5 ul); 3 ug Rad54 or Rad54-AA in 30 ul buffer K (10 mM Na2HPO4, 1.8 mM KH2PO4 pH 7.4, 100 mM or 200 mM KCl), 30 min on ice; SDS eluate on 12% SDS-PAGE, Coomassie or anti-Rad54 blot; both purified.

Residue numbers refer to the chain shown, from its start. In names and notes the source's numbering stands. Results are given in words; binding and its absence hold for the method and conditions named. Some entries that bind do so weakly or less than the wild type.

Consider Rad51 (from UniProt P25454 1-400), for which the binding result in test [1] and in test [2] was “binds” each time.

B1: Rad54 (S. cerevisiae, wild type) (protein, UniProt P32863 1-898)
chain: T1 sequence
For B1, the binding entry in test [3], in test [4] and in test [5] was “binds” in each case.

B2: Rad54-AA (Y494A, F495A) mutant protein (protein, UniProt P32863 1-898)
chain: T1 sequence with Y494A, F495A
As to B2, the binding entry in test [5] was “binds”.
As to VILSGTPIQNDLSEYFALLSFSNP [pFF, oligopeptide derived from the Rad54 PIP box], the binding result in test [3] was “binds”.
